Results: patent publication US8476197B2, “Aminopropenoates as fungicides” (priority 2009, dated 2013)
Some entries share one result that the patent states for a list of compounds.

What follows are molecules tested on Phytophthora infestans. Conditions: preventive, tomato, 500 ppm of active ingredient, evaluated 7 days after inoculation.
Assay type: in vivo

Row | Compound | efficacy [%]
1 | CCOC(=O)C(C#N)=C(NC(C)Cc1c[nH]c2ccccc12)c1cn(C)nc1C(F)(F)F (stereo not drawn) [Compound 65] | ≥ 70
2 | CCOC(=O)C(C#N)=C(NC(C)c1ccccn1)c1conc1C (stereo not drawn) [Compound 82] | ≥ 70
3 | CCOC(=O)C(C#N)=C(NC(C)C#N)c1cn(C)nc1C(F)F (racemic) [Compound 1254] | ≥ 70
4 | CCOC(=O)C(C#N)=C(NC(C)COCc1ccccc1Cl)c1cn(C)nc1C(F)F (racemic) [Compound 1241] | ≥ 70
5 | CCOC(=O)C(C#N)=C(NC1CC(C)C1)c1cccnc1Cl (stereo not drawn) [Compound 1073] | ≥ 70
6 | CCOC(=O)C(C#N)=C(NC(C)CSC)c1cccnc1Cl (stereo not drawn) [Compound 593] | ≥ 70
7 | CCOC(=O)C(C#N)=C(NC(C)C(C)C)c1cccnc1-c1ccc(Cl)cc1 (stereo not drawn) [Compound 974] | ≥ 70
8 | CCOC(=O)C(C#N)=C(NC(C)C1CC1)c1ccncc1C(F)(F)F (racemic) [Compound 905] | ≥ 70
9 | CCOC(=O)C(C#N)=C(NC(C)C1CC1)c1ccncc1Br (racemic) [Compound 903] | ≥ 70
10 | CCOC(=O)C(C#N)=C(NC(C)(C)C(C)(C)C)c1cccnc1Cl [Compound 1273] | ≥ 70
11 | CCOC(=O)C(C#N)=C(NC(C)c1ccccn1)c1ccncc1F (mixture of isomers) [Compound 300] | ≥ 70
12 | CCOC(=O)C(C#N)=C(NC(C)C(C)C)c1ccncc1F (stereo not drawn) [Compound 997] | ≥ 70
13 | CCOC(=O)C(C#N)=C(NC1CSC1)c1cn(C)nc1C(F)F [Compound 1355] | ≥ 70
14 | CCOC(=O)C(C#N)=C(NC1CCC1)c1ccncc1F [Compound 804] | ≥ 70
15 | CCOC(=O)C(C#N)=C(NC(C)c1ccccn1)c1cn(C)nc1C (stereo not drawn) [Compound 1204] | ≥ 70
16 | CCOC(=O)C(C#N)=C(NC(C)C(=O)OCC)c1cccnc1Cl (stereo not drawn) [Compound 1194] | ≥ 70
17 | CC#CC(C)NC(=C(C#N)C(=O)OCC)c1cn(C)nc1C(F)F (stereo not drawn) [Compound 1142] | ≥ 70

Row | Compound | efficacy [%]
18 | CC(C)C(C)NC(=C(C#N)C(=O)N(C)C1CC1)c1cccnc1Cl (stereo not drawn) [Compound 1513] | ≥ 70
19 | CCOC(=O)C(C#N)=C(NC(C)C1CC1)c1cccnc1Cl (stereo not drawn) [Compound 878] | ≥ 70
20 | CCOC(=O)C(C#N)=C(Nc1ccc(OC)cc1)c1cn(C)nc1C(F)F [Compound 495] | ≥ 70
21 | CCOC(=O)C(C#N)=C(NC(C)C(C)C)c1conc1C (stereo not drawn) [Compound 940] | ≥ 70
22 | CCOC(=O)C(C#N)=C(NC(C)c1nc(C(=O)N(C)C)cs1)c1cccnc1Cl (mixture of isomers) [Compound 304] | ≥ 70
23 | CCOC(=O)C(C#N)=C(NC(C)C(C)C)c1cn(C)nc1CC (stereo not drawn) [Compound 1205] | ≥ 70
24 | CCOC(=O)C(C#N)=C(Nc1ccc(F)cc1F)c1cccnc1Cl [Compound 1600] | ≥ 70
25 | CCCCC(C)NC(=C(C#N)C(=O)OCC)c1cn(C)nc1C(F)F (stereo not drawn) [Compound 1125] | ≥ 70
26 | CCOC(=O)C(C#N)=C(NC(C)CC)c1cccnc1C(F)(F)F (racemic) [Compound 840] | ≥ 70
27 | CCOC(=O)C(C#N)=C(NC(C#N)c1ccccc1)c1cn(C)nc1C(F)F (stereo not drawn) [Compound 1230] | ≥ 70
28 | CCOC(=O)C(C#N)=C(NC(C)C(=O)NC)c1ccnc(Cl)c1F (stereo not drawn) [Compound 1324] | ≥ 70
29 | CCOC(=O)C(C#N)=C(NC(C#N)CC)c1cn(C)nc1C(F)F (racemic) [Compound 1251] | ≥ 70
30 | CCOC(=O)C(C#N)=C(NC(C)c1ccccn1)c1cccnc1C(F)F (racemic) [Compound 264] | ≥ 70
31 | CCC(NC(=C(C#N)C(=O)OC)c1cccnc1Cl)C1CCCCC1 (stereo not drawn) [Compound 762] | ≥ 70
32 | CCOC(=O)C(C#N)=C(NC1CCC1)c1cccnc1C(F)F [Compound 799] | ≥ 70
33 | CCOC(=O)C(C#N)=C(NC(C)c1cc(Cl)cc(C)n1)c1cccnc1Cl (stereo not drawn) [Compound 1446] | ≥ 70
